Laboratory results as given in PubChem BioAssay AID540276 (National Center for Advancing Translational Sciences (NCATS), 2011).
“And” between values parts separate entries of the source, which are not always exact repeats. Identical values can stand only once. Out of some 300,000 compounds screened, about 5,400 (1.8%) were called active. This list was built around the results that the source calls inconclusive (neither active nor inactive); the mix of calls is not that of the screen. Calls come from the whole dose curve; tested in HEK293 cells. A potency beside an inconclusive call is a rough fit, not a confirmed value.
% is set by controls: 0 for no effect and ±100 for the full control effect; potency is the fitted concentration of half-maximal effect.

Assay: qHTS for inhibitors of binding or entry into cells for Marburg Virus
Conditions: Marburg virus pseudotyped entry inhibition, cell reporter; activity change, negative = inhibition: at 37.8 µM (top of the series) unless noted
For `CCOC(=O)NC(=O)CSc1nc(-c2ccc(C)c(C)c2)cn1-c1ccccc1`, the Potency was inconclusive: 0.13 µM [inhibitor, partial curve, poor fit]. For `CCOc1ccccc1NC(=O)COc1coc(CN2CCc3ccccc32)cc1=O`, the Potency was inconclusive: 6.31 µM [inhibitor, partial curve, poor fit]. For `COc1ccc(N(CC(=O)O)S(=O)(=O)c2ccc(OC)c(OC)c2)cc1`, the Potency was inconclusive: 6.51 µM [activator, single point]. With `C/C(N)=C(/C#N)C(=O)COC(=O)Cc1coc2ccc3ccccc3c12` the Potency was inconclusive: 17.8 µM [inhibitor, single point]. With `Cn1c(=O)n(C)c2cc(NC(=O)c3cccc([N+](=O)[O-])c3)c(Br)cc21` the activity change, negative = inhibition was inconclusive: 21.4% [activator] [at 46.1 µM]. For `Cc1nc(Nc2ccccc2)sc1C(=O)Nc1ccccc1`, the Potency was inconclusive: 8.91 µM [inhibitor, partial curve]. For `CC/C(C)=N/Nc1nc2c(c(=O)[nH]c(=O)n2C)n1Cc1ccccc1`, the Potency was inconclusive: 1.26 µM [inhibitor, single point]. With `CN1CC(=O)NC1=NC(=O)C12CC3CC(CC(C3)C1)C2` the Potency was “inactive”. With `Cc1ccc2cccc(N)c2n1` the Potency was “inactive”. In the case of `CCc1cccc2c(C(=O)CN3C(=O)NC4(CCCCCC4)C3=O)c[nH]c12`, the Potency was inconclusive: 11.2 µM [inhibitor, single point]. For `COC(=O)c1[nH]c2cc(OC)ccc2c1NC(=O)c1nonc1C`, the Potency was inconclusive: 29.1 µM [activator, single point]. For `CC(=O)Nc1ccc(-c2csc(N/N=C\c3ccncc3)n2)cc1`, the Potency was inconclusive: 14.1 µM [inhibitor, single point]. In the case of `CCn1cc(C(=O)NCCCN2CCCCCC2)c(=O)c2cc(S(=O)(=O)N3CCc4ccccc4C3)ccc21`, the Potency was inconclusive: 20 µM [inhibitor, single point]. With `COc1cccc(CNCc2ccccc2Br)c1OC` the Potency was “inactive”. With `Cc1cccc(NC(=S)NC(=O)/C=C/c2ccco2)c1` the Potency was inconclusive: 3.55 µM [inhibitor, full curve]. For `CC(C)c1nc(N2CCOCC2)c(C#N)c2c1CCCC2`, the Potency was inconclusive: 14.6 µM [inhibitor, partial curve, poor fit]. For `O=S(c1ccccc1O)S(=O)c1ccccc1O` (stereo not given), the Potency was “inactive”. With `OC1CCCN(Cc2cn(Cc3ccccc3)nc2-c2cc3ccccc3o2)C1` (stereo not given) the Potency was active: 25.9 µM. In the case of `Nc1c(-c2ccc(Cl)cc2)cnn1-c1cccc(C(F)(F)F)c1`, the Potency was inconclusive: 1.26 µM [activator, single point]. For `COc1ccc(N(CC(=O)NCc2cccc(OC)c2)S(=O)(=O)c2c(C)noc2C)cc1`, the Potency was inconclusive: 0.794 µM [inhibitor, full curve, poor fit]. For `COc1ccc(N2C=C3C(=O)C(C)(OC(=O)C4CCCC4)C(=O)C=C3C=C2c2ccsc2)cc1` (stereo not given), the Potency was inconclusive: 0.0084 µM [activator, full curve, poor fit]. With `Cc1ccc(NS(=O)(=O)c2cccc(C(=O)NCC3CCCO3)c2)cc1` (stereo not given) the Potency was inconclusive: 35.5 µM [inhibitor, single point]. In the case of `CCCCCOc1ccc(NC(=O)C(=O)NCC2CCCN2CC)cc1` (stereo not given), the Potency was “inactive”. In the case of `CON1C(=O)C(=O)N(OC)C(C)(C)C1(C)C`, the Potency was inconclusive: 0.251 µM [activator, partial curve, poor fit]. In the case of `COc1ccc(NC(=O)[C@@H]2CCCN2S(=O)(=O)c2ccccc2F)cc1S(=O)(=O)N1CCCCC1`, the Potency was inconclusive: 35.5 µM [inhibitor, single point]. For `CCOC(=O)C1=C(CN2CCN(CCC#N)CC2)NC(=O)NC1c1ccc2c(c1)OCO2` (stereo not given), the Potency was inconclusive: 35.5 µM [activator, single point]. In the case of `Cc1ccc(N2C(N)=C(C#N)C3(C(=O)N(C)c4ccccc43)C3=C2CC(C)(C)CC3=O)cc1Cl` (stereo not given), the Potency was inconclusive: 2.51 µM [inhibitor, full curve]. With `O=C(NCc1ccccc1)c1cccc(COc2cc(Cl)ccc2Cl)c1` the Potency was inconclusive: 6.31 µM [activator, partial curve, poor fit]. In the case of `O=C(Nc1ccc(F)cc1F)c1noc2c1CCc1ccccc1-2`, the Potency was inconclusive: 39.8 µM [activator, partial curve, poor fit]. With `NNC(=O)C1CC1(c1ccccc1)c1ccccc1` (stereo not given) the Potency was inconclusive: 35.5 µM [inhibitor, single point]. For `COc1nc(Nc2ccc([N+](=O)[O-])cc2)nc(NC2CCCCC2)n1`, the Potency was inconclusive: 3.55 µM [inhibitor, single point]. In the case of `Cc1ccc(-n2c(=O)c3ccc(C(=O)NCc4ccco4)cc3n(Cc3cccc(Cl)c3)c2=O)cc1`, the Potency was inconclusive: 22.4 µM [activator, single point]. In the case of `O=C(O)CCC(=O)N1CCc2c([nH]c3ccccc23)C1C(F)(F)F` (stereo not given), the Potency was “inactive”. With `Cc1ccc(/C(N)=N/OC(=O)Cc2ccccc2)cc1` the Potency was “inactive”. For `COc1cc(NC(=O)c2sc(C)nc2C)c(OC)cc1NC(=O)c1ccccc1`, the Potency was “inactive”. For `COc1cccc(/C=N/Nc2nc(Nc3ccccc3)nc(-n3nc(C)cc3C)n2)c1O`, the Potency was inconclusive: 2.24 µM [inhibitor, partial curve, poor fit]. For `CCOC(=O)C(=CNc1ccc(NC2=NCC(C)(C)S2)cc1)C(=O)OCC`, the Potency was inconclusive: 12.6 µM [inhibitor, single point]. With `CCOc1ccccc1NC(=O)Cn1nnc(C(=O)NCCc2ccc(OC)c(OC)c2)c1N` the Potency was “inactive”. With `Cc1ccc(N(CC(=O)N/N=C/c2ccc(OC3CSC3)cc2)S(=O)(=O)c2ccccc2)cc1` the Potency was inconclusive: 23.1 µM [inhibitor, single point]. In the case of `CCCCC/C(=N\NC(=O)CCC(=O)NCc1ccccc1)c1ccccc1`, the Potency was inconclusive: 35.5 µM [inhibitor, single point]. With `O=C(OCC(=O)N1CCOCC1)c1ccccc1Br` the Potency was inconclusive: 1.41 µM [activator, partial curve, poor fit]. With `CC(C)COP(=O)(OCC(C)C)C(Nc1ccccc1)c1ccccc1` (stereo not given) the Potency was inconclusive: 17.8 µM [inhibitor, single point]. In the case of `COC(CNC(=O)CSCc1nc(-c2ccc(SC)cc2)oc1C)OC`, the Potency was inconclusive: 25.1 µM [inhibitor, single point]. In the case of `CN(C)Cc1ccccc1Sc1ccc2c(c1)CCCC2`, the Potency was inconclusive: 35.5 µM [inhibitor, single point]. In the case of `O=C(C=C(C(=O)c1ccccc1)c1ccccc1)c1ccccc1`, the Potency was inconclusive: 11.2 µM [inhibitor, partial curve, poor fit]. For `O=C(c1cc([N+](=O)[O-])ccc1Cl)N1c2ccccc2Sc2ccccc21`, the Potency was inconclusive: 7.08 µM [inhibitor, partial curve, poor fit]. In the case of `CC(C)CN1C(=O)C(=O)N(CC(=O)c2ccc3c(c2)OCO3)C1=O`, the Potency was inconclusive: 20 µM [activator, single point]. For `O=C(Nc1nnc(-c2ccccc2F)s1)C1CCN(S(=O)(=O)c2ccc(Cl)cc2)CC1`, the Potency was “inactive”. With `Cn1c(C(=O)N2CCCC(C(=O)NCCCc3ccccc3)C2)cc2sccc21` (stereo not given) the Potency was inconclusive: 13 µM [inhibitor, single point]. With `COC(=O)CN(c1c(C)cccc1C)S(C)(=O)=O` the Potency was “inactive”. With `CCOC(=O)c1ccc(N2CCN(C(C)=O)CC2)c(NC(=O)c2cccnc2)c1` the Potency was inconclusive: 0.562 µM [activator, full curve, poor fit]. In the case of `Cc1cc(C)n(CCc2nc3c4ccccc4n(CC#N)c(=O)n3n2)n1`, the Potency was inconclusive: 16.4 µM [activator, partial curve, poor fit]. With `O=C(c1cc(-c2ccccn2)nc2c(Cl)cccc12)N1CCN(C(=O)C2CCCO2)CC1` (stereo not given) the Potency was inconclusive: 0.447 µM [activator, full curve, poor fit]. With `Cc1ccc(C(=O)N2CCCC(C(=O)Nc3cccc(-c4ccc(F)cc4)c3)C2)cn1` (stereo not given) the Potency was inconclusive: 11.2 µM [inhibitor, partial curve, poor fit]. With `O=C(Nc1cccc(C(=O)N2CCOCC2)c1)c1cncc(Br)c1` the Potency was “inactive”. For `CC(C)Nc1nc(Cl)nc(Nc2ccccc2)n1`, the Potency was inconclusive: 5.62 µM [activator, single point]. With `Cc1ccc(-c2noc(-c3ccoc3C)n2)cc1` the Potency was inconclusive: 6.31 µM [activator, single point]. For `NOCC(=O)O`, the Potency was “inactive and inconclusive: 3.98 µM [activator, single point]”. For `Cc1cc(C)c(NC(=S)NCCCSC2CCCCC2)c(C)c1`, the Potency was inconclusive: 35.5 µM [inhibitor, single point]. With `Cc1ccc(C)c(NC(=O)Cn2c(=O)n(CCC(=O)NCc3ccc4c(c3)OCO4)c(=O)c3ccccc32)c1` the Potency was “inactive”. With `COc1ccccc1NC(=O)Cc1cccc2ccccc12` the Potency was inconclusive: 3.16 µM [inhibitor, partial curve, poor fit]. In the case of `CCOC(=O)C1CCCN(C(=O)c2ccc3c(c2)N(Cc2ccccc2)C(=O)c2ccccc2S3=O)C1` (stereo not given), the Potency was inconclusive: 6.31 µM [activator, single point]. For `O=C(CN1CCCCCC1)OCCN=C1NS(=O)(=O)c2ccccc21`, the Potency was inconclusive: 1.26 µM [activator, partial curve, poor fit]. With `Cc1ccc2nc(C)/c(=N\O)c(C)nc2c1` the Potency was “inactive”. In the case of `COC(=O)[C@@H]1[C@@H](C(=O)OC)C2(c3ccccc3-c3ccccc32)N(c2ccc(Cl)cc2)N1C#N`, the Potency was active: 10 µM.
